Reference: PubChem BioAssay AID493014 (National Center for Advancing Translational Sciences (NCATS), 2011)
Some of the results follow. These are further read-outs of the screen, such as a control signal, another cell line or another target. No call is given for them. The list favours compounds with an active or inconclusive main result. The note in brackets gives the kind of curve behind each potency; many fits are weak.

Experiment: qHTS Assay to Find Inhibitors of Chronic Active B-Cell Receptor Signaling
Settings: ABC-DLBCL IkBa-CBG/CBR reporter, luminescence ratio (green luciferase fused to IkBa over red control in TMD8 lymphoma cells), 4 h
Summary of the method: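 TMD8 ABC-DLBCL cells carrying doxycycline-inducible green luciferase fused to IkappaBalpha plus unfused red luciferase were exposed to compounds (up to 46 uM) for 4 hrs at 37C. Activity came from the overlap-corrected green/red luminescence ratio.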

[1] = measured here: CBR red luminescence, cell number
[2] = measured here: IkBa-CBG green luminescence

Structure (SMILES): O=C(NCCCN1CCCC1=O)c1cccc(NS(=O)(=O)c2ccccc2)c1
- AC50 [1]: 5.17 µM [falling, single point]

Structure (SMILES): Cc1ccc(CC2S/C(=N/N=C/c3ccco3)NC2=O)cc1 (stereo unspecified)
- AC50 [1]: 35.5 µM [rising, partial curve, poor fit]

Structure (SMILES): O=C(Cc1ccccc1)Nc1ccc(NC(=O)c2ccco2)cc1Cl
- AC50 [1]: 25.1 µM [falling, partial curve, poor fit]

Structure (SMILES): CC1CCC2C(=O)N(c3cccc(OS(=O)(=O)c4ccccc4)c3)C(=O)C2C1 (stereo unspecified)
- AC50 [1]: 1.46 µM [rising, full curve, poor fit]

Structure (SMILES): O=C(c1ccccc1)N1CCN2C(=O)c3ccccc3C12c1ccc(Cl)cc1 (stereo unspecified)
- AC50 [1]: 20.6 µM [falling, partial curve]
- AC50 [2]: 16.4 µM [rising, partial curve, poor fit]

Structure (SMILES): CCOC(=O)N1CCN(Cc2cccs2)CC1
- AC50 [1]: 18.4 µM [falling, single point]

Structure (SMILES): COc1ccc2nc(SCC(=O)Nc3ccc4c(c3)OCCO4)[nH]c2c1
- AC50 [1]: 12.6 µM [falling, partial curve]

Structure (SMILES): O=C1NCCCc2c1oc1ccc(O)cc21
- AC50 [1]: 5.62 µM [falling, partial curve, poor fit]

Structure (SMILES): CC(=O)c1ccc(OCc2ncc(C(F)(F)F)cc2Cl)cc1
- AC50 [1]: 17.8 µM [rising, partial curve]

Structure (SMILES): CC(C)CNC(=O)COCc1cc(-c2ccc3c(c2)OCO3)on1
- AC50 [1]: 3.16 µM [falling, full curve]

Structure (SMILES): COCCNc1nc2c(-c3cccc(C(F)(F)F)c3)nnn2c2ccccc12
- AC50 [1]: 10 µM [rising, partial curve, poor fit]

Structure (SMILES): Cc1ccc2nc(SCC(=O)Nc3cccc(S(=O)(=O)NC4=NCCCCC4)c3)[nH]c2c1
- AC50 [1]: 8.91 µM [falling, partial curve]

Structure (SMILES): CC(C)c1nc2sc3c(=S)nc[nH]c3c2c2c1CCC2
- AC50 [1]: 8.91 µM [rising, partial curve, poor fit]

Structure (SMILES): COc1cccc(-c2nc(CC(=O)O)cs2)c1OC
- AC50 [1]: 20.6 µM [rising, single point]

Structure (SMILES): C=CCc1cccc(C=Nc2cccn3cc(-c4ccccc4)nc23)c1O
- AC50 [1]: 25.1 µM [falling, single point]

Structure (SMILES): Cc1ccc2cc3c(N)c(C(=O)N4CC(=O)Nc5ccccc54)sc3nc2c1
- AC50 [1]: 0.447 µM [rising, full curve, poor fit]
- AC50 [2]: 0.447 µM [falling, full curve, poor fit]

Structure (SMILES): O=c1cc(N2CCc3ccccc32)[nH]c(=O)n1-c1ccc(Br)cc1
- AC50 [1]: 20.6 µM [falling, partial curve]

Structure (SMILES): O=C(Nc1ccccc1)Nc1ccc2ccccc2n1
- AC50 [1]: 0.1 µM [rising, full curve, poor fit]

Structure (SMILES): Cc1ccc(/C=C2\SC(=S)N(CCCC(=O)NC3CCCC3)C2=O)cc1
- AC50 [1]: 3.98 µM [falling, partial curve, poor fit]

Structure (SMILES): CCC(C)C(=O)N1CCc2cc(-c3csc(N)n3)ccc21 (stereo unspecified)
- AC50 [1]: 2.24 µM [rising, full curve]

Structure (SMILES): COc1cc(/C=C/c2ccc3c(Br)cc(Br)c(O)c3n2)ccc1O
- AC50 [1]: 35.5 µM [falling, single point]
- AC50 [2]: 3.16 µM [falling, partial curve, poor fit]

Structure (SMILES): Cc1ccc(NC(=S)Nc2cc(-c3ccccc3)[nH]n2)cc1Cl
- AC50 [1]: 35.5 µM [falling, single point]

Structure (SMILES): CCn1cc(C(=O)OCc2cccc(Br)c2)c(=O)c2ccc(C)nc21
- AC50 [1]: 6.51 µM [falling, single point]

Structure (SMILES): O=C(Nc1nnc(C(F)(F)F)s1)c1ccc(Br)s1
- AC50 [1]: 1.26 µM [falling, full curve, poor fit]

Structure (SMILES): COc1ccc(OC)c(-c2cc(C(=O)Nc3c(C)nn(Cc4ccccc4Cl)c3C)no2)c1
- AC50 [1]: 1.26 µM [rising, full curve, poor fit]

Structure (SMILES): COc1ccc(C(=O)C2CCCN(Cc3cccn3-c3ccc(Cl)cn3)C2)c(OC)c1 (stereo unspecified)
- AC50 [1]: 35.5 µM [falling, single point]

Structure (SMILES): CC(C)=NNc1nc2c(c(=O)n(C)c(=O)n2C)n1C
- AC50 [1]: 5.01 µM [falling, partial curve]

Structure (SMILES): CC(=O)OCC1O[C@@H](O[C@@H]2C[C@H]3C(C)(C)[C@H](OC(C)=O)CC[C@]3(C)[C@H]3CC[C@]45C[C@]4(CC[C@H]5[C@@H](C)C[C@@H](O)[C@H](O)C(C)(C)O)[C@@]32C)[C@H](O)[C@@H](O)[C@@H]1O (stereo partly specified)
- AC50 [1]: 14.6 µM [falling, partial curve]
- AC50 [2]: 14.6 µM [rising, partial curve]

Structure (SMILES): Cc1cccc(-c2nsc(SCC(=O)Nc3nccs3)n2)c1
- AC50 [1]: 0.708 µM [rising, full curve, poor fit]

Structure (SMILES): O=C(Nc1ccc(S(=O)(=O)Nc2ccc(F)cc2)cc1)c1ccc(CN2CCOCC2)cc1
- AC50 [1]: 1.58 µM [falling, single point]

Structure (SMILES): CCC(=O)Nc1nnc(SCc2cccc(F)c2)s1
- AC50 [1]: 1.78 µM [rising, full curve, poor fit]

Structure (SMILES): CC(=O)OC(C(=O)NC1CCCCC1)c1cccc(F)c1 (stereo unspecified)
- AC50 [1]: 0.1 µM [rising, full curve, poor fit]

Structure (SMILES): CSCc1c(C(=O)OCC(=O)c2ccc[nH]2)oc2ccccc12
- AC50 [1]: 1.64 µM [falling, full curve]

Structure (SMILES): Clc1cccc(/C=N\Nc2nccs2)c1
- AC50 [1]: 0.517 µM [rising, partial curve, poor fit]

Structure (SMILES): CN(CC(=O)O/N=C(\N)c1ccccn1)S(=O)(=O)c1cc(Cl)ccc1Cl
- AC50 [1]: 2.82 µM [rising, partial curve, poor fit]
- AC50 [2]: 2.51 µM [falling, full curve, poor fit]

Structure (SMILES): CCOC(=O)C1=C(C)N=c2s/c(=C\c3ccncc3)c(=O)n2C1c1ccc2c(c1)OCO2 (stereo unspecified)
- AC50 [1]: 3.55 µM [falling, partial curve, poor fit]

Structure (SMILES): O=C(CS(=O)CC(=O)N(CC(=O)NC1CCCC1)C1CCCCC1)Nc1ccc(F)cc1 (stereo unspecified)
- AC50 [1]: 14.1 µM [falling, partial curve, poor fit]

Structure (SMILES): Cc1nn(-c2ccccc2)c(C)c1/C=C/C(=O)OCC(=O)NC1CCS(=O)(=O)C1 (stereo unspecified)
- AC50 [1]: 14.1 µM [rising, single point]

Structure (SMILES): O=C(Nc1cccc(S(=O)(=O)Nc2ccc(Cl)cc2)c1)c1cc2c(s1)CCCC2
- AC50 [1]: 29.1 µM [falling, single point]

Structure (SMILES): O=C(O)c1ccc(NC2=C(Cl)C(=O)c3ccccc3C2=O)cc1
- AC50 [1]: 2 µM [falling, full curve]
- AC50 [2]: 5.62 µM [rising, full curve, poor fit]

Structure (SMILES): CSc1cc(-c2ccc(Cl)cc2)c(C(=O)N2CCCC2)s1
- AC50 [1]: 3.26 µM [rising, single point]

Structure (SMILES): COc1ccc(Cc2noc(CN(C)Cc3ccc(-n4cccn4)cc3)n2)cc1OC
- AC50 [1]: 4.47 µM [rising, partial curve, poor fit]

Structure (SMILES): CC(=O)N/C(=C\c1ccccc1)C(=O)OCc1cccc(S(=O)(=O)N(C)C)c1
- AC50 [1]: 0.794 µM [falling, full curve, poor fit]

Structure (SMILES): CC1(C)CC(=O)C=C(NCCc2c[nH]c3ccccc23)C1
- AC50 [1]: 0.251 µM [rising, partial curve, poor fit]

Structure (SMILES): COc1cc(CNc2ccc(N3CCN(C(C)=O)CC3)cc2)ccc1OCc1ccc(F)cc1
- AC50 [1]: 35.5 µM [falling, single point]

Structure (SMILES): Cc1cccc(OCCNC(=O)c2ncn[nH]2)c1
- AC50 [1]: 29.1 µM [falling, single point]

Structure (SMILES): CCCN(CCC)S(=O)(=O)c1ccc(C(=O)Nc2ccc(S(=O)(=O)Nc3nnc(CC)s3)cc2)cc1
- AC50 [1]: 22.4 µM [falling, single point]

Structure (SMILES): O=C(NCc1ccc(Cl)cc1)C1CCC(CNc2c(N3CCCCC3)c(=O)c2=O)CC1 (stereo unspecified)
- AC50 [1]: 0.164 µM [rising, full curve, poor fit]

Structure (SMILES): COc1ccc(Cc2noc(CN3CCN(C4CCc5ccccc5C4)CC3)n2)cc1OC (stereo unspecified)
- AC50 [1]: 35.5 µM [falling, single point]

Structure (SMILES): COCCN1C(=O)N[C@@H](c2cccc(F)c2)C(C(=O)OC)=C1C
- AC50 [1]: 20 µM [rising, partial curve, poor fit]

Structure (SMILES): CCc1ccc(NC(=O)COn2nnc3ccc(S(=O)(=O)N(C)C)cc32)cc1
- AC50 [1]: 20.6 µM [falling, partial curve, poor fit]

Structure (SMILES): O=c1[nH]c(SCc2ccc([N+](=O)[O-])cc2)nc2[nH]ncc12
- AC50 [1]: 8.91 µM [rising, partial curve, poor fit]

Structure (SMILES): COc1cccc2sc3ccc(NCCC4CCCN4C)cc3c(=O)c12 (stereo unspecified)
- AC50 [1]: 6.31 µM [falling, partial curve]

Structure (SMILES): O=C(O)c1ccc(Nc2nc3ccc(Cl)cc3[nH]2)cc1
- AC50 [1]: 0.562 µM [falling, full curve]

Structure (SMILES): O=C(CCc1nc(-c2ccccc2)no1)NC1CCCCC1
- AC50 [1]: 0.517 µM [rising, full curve, poor fit]

Structure (SMILES): O=C(CN1CC(=O)Oc2ccccc21)OCC(=O)c1cccc(Br)c1
- AC50 [1]: 10 µM [falling, partial curve, poor fit]

Structure (SMILES): C/C(=N\NC(=O)c1ccccc1C)c1ccc(N2CCOCC2)cc1
- AC50 [1]: 14.6 µM [falling, partial curve]

Structure (SMILES): O=C(CNC(=O)c1ccco1)OCc1ccc(C(=O)Oc2ccccc2)cc1
- AC50 [1]: 29.1 µM [rising, single point]

Structure (SMILES): C=C(C)C1CC=C(C)/C(=N\NC(=O)CNc2ccccc2OC)C1 (stereo unspecified)
- AC50 [1]: 7.31 µM [falling, partial curve]

Structure (SMILES): COc1ccc2oc(C)c(C(=O)Cn3ccnc3)c2c1
- AC50 [1]: 2.59 µM [falling, full curve, poor fit]
